Drawing on article PMC13572491, this text covers binding for one substance.

The chains behind the UniProt entries cited, without tags or fusion partners.
UniProt A7SLZ2: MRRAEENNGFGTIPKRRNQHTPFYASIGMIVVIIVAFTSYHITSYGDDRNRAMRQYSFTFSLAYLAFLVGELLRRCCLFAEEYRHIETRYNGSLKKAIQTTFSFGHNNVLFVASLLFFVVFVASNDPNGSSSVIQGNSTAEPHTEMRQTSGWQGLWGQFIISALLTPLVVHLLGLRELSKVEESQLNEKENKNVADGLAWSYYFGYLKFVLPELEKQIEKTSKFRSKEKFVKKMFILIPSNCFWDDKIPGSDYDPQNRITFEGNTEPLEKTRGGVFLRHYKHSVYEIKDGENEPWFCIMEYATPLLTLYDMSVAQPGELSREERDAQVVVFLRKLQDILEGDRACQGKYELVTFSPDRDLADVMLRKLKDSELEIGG

These are yes or no findings as the source states them, for the method shown. Some results given as binding are weak or reduced against the parent protein; the word gives no strength.

The experiment concerns the target HA-NvSTING stably expressed in MEF Sting-/- (MEF^NvSTING) (Nematostella vectensis) (UniProt A7SLZ2). The experiment in a line: native gel or EMSA; native electrophoresis (NativePAGE 3-12% Bis-Tris, lysis in 25 mM NaCl, 20 mM HEPES pH 7.0, 10% glycerol, 1% DDM) and Western blot of lysates of MEF lines expressing STING homologs, 1 h or 3 h after 2’3’-cGAMP. (A gel shift assay detects complexes by their altered migration in electrophoresis.)

Turning to “HA-NvSTING stably expressed in MEF Sting-/- (MEF^NvSTING) (from UniProt A7SLZ2 1-377)”, the binding result is given as “binds”.
